Source: article PMC11897192
No constants are given. Whether binding was seen depends on the method and setting. Binding seen in cells or lysates may run through a third protein. Some results given as binding are weak or reduced against the parent protein; the word gives no strength. Tags and fused reporters may be left off the sequences shown.

T1: Flag-ZBTB20 (UniProt Q8K0L9)
T1 sequence: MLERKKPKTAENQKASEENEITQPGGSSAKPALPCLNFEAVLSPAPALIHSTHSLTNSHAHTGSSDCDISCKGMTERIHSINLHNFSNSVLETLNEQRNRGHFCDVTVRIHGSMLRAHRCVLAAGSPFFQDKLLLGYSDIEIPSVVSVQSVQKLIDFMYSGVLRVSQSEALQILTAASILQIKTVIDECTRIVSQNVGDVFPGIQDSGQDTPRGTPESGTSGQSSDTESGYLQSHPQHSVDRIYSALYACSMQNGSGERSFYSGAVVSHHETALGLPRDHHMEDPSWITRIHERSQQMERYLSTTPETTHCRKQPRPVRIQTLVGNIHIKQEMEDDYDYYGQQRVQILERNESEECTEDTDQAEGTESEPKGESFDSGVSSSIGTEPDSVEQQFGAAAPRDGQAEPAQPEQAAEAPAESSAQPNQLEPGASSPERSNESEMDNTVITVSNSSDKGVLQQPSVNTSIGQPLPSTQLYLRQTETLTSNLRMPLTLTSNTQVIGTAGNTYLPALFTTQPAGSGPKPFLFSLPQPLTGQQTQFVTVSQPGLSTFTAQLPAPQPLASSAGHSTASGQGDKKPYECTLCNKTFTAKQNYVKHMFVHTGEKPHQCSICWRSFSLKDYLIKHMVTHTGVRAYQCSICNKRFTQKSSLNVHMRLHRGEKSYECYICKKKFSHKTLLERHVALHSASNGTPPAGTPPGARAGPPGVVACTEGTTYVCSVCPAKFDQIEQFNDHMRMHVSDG

T2: Myc-LATS1 (UniProt Q8BYR2)
T2 sequence: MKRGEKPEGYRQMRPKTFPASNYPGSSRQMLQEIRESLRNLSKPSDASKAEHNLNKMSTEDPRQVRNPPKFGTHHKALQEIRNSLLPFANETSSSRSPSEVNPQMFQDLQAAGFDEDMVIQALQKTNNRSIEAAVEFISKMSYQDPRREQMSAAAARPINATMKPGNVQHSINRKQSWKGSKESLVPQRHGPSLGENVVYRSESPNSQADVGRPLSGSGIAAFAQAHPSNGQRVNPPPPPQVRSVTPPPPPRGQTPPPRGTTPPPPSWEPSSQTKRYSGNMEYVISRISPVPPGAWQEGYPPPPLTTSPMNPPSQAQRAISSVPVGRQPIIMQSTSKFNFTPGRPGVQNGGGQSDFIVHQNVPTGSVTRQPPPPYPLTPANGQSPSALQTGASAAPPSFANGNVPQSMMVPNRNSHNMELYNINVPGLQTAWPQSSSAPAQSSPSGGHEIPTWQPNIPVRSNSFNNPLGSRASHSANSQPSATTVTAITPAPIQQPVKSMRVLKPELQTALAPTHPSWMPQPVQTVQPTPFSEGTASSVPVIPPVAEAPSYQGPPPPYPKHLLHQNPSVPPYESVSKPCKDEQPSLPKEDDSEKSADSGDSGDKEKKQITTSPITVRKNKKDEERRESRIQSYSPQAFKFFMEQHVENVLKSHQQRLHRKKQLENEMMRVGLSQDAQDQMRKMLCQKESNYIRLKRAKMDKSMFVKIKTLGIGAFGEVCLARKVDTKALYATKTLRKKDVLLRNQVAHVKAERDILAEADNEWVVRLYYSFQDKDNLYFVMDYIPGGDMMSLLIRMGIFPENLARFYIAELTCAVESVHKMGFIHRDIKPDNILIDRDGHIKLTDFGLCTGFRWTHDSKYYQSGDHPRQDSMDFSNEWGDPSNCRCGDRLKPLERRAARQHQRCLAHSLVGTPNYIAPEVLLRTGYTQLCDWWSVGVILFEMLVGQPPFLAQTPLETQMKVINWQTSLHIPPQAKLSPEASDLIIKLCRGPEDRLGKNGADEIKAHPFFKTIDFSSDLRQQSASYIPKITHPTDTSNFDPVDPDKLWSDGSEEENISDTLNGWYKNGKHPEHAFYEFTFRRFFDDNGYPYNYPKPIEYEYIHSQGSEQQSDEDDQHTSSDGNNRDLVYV


Columns and labels:
[1] = molecular target: T1, Flag-ZBTB20; test: co-IP; tag-fused proteins Flag-ZBTB20 and Myc-LATS1; cells stimulated with IL-1β
[2] = molecular target: T1, Flag-ZBTB20; test: co-IP; tag-fused proteins Flag-ZBTB20 and Myc-LATS1, reciprocal; without IL-1β; cells not given
[3] = molecular target: T2, Myc-LATS1; test: as above

binding [2]	binding [3]	Binder	binding [1]
binds	–	Myc-LATS1 (protein, UniProt Q8BYR2 1-1129) MKRGEKPEGYRQMRPKTFPASNYPGSSRQMLQEIRESLRNLSKPSDASKAEHNLNKMSTEDPRQVRNPPKFGTHHKALQEIRNSLLPFANETSSSRSPSEVNPQMFQDLQAAGFDEDMVIQALQKTNNRSIEAAVEFISKMSYQDPRREQMSAAAARPINATMKPGNVQHSINRKQSWKGSKESLVPQRHGPSLGENVVYRSESPNSQADVGRPLSGSGIAAFAQAHPSNGQRVNPPPPPQVRSVTPPPPPRGQTPPPRGTTPPPPSWEPSSQTKRYSGNMEYVISRISPVPPGAWQEGYPPPPLTTSPMNPPSQAQRAISSVPVGRQPIIMQSTSKFNFTPGRPGVQNGGGQSDFIVHQNVPTGSVTRQPPPPYPLTPANGQSPSALQTGASAAPPSFANGNVPQSMMVPNRNSHNMELYNINVPGLQTAWPQSSSAPAQSSPSGGHEIPTWQPNIPVRSNSFNNPLGSRASHSANSQPSATTVTAITPAPIQQPVKSMRVLKPELQTALAPTHPSWMPQPVQTVQPTPFSEGTASSVPVIPPVAEAPSYQGPPPPYPKHLLHQNPSVPPYESVSKPCKDEQPSLPKEDDSEKSADSGDSGDKEKKQITTSPITVRKNKKDEERRESRIQSYSPQAFKFFMEQHVENVLKSHQQRLHRKKQLENEMMRVGLSQDAQDQMRKMLCQKESNYIRLKRAKMDKSMFVKIKTLGIGAFGEVCLARKVDTKALYATKTLRKKDVLLRNQVAHVKAERDILAEADNEWVVRLYYSFQDKDNLYFVMDYIPGGDMMSLLIRMGIFPENLARFYIAELTCAVESVHKMGFIHRDIKPDNILIDRDGHIKLTDFGLCTGFRWTHDSKYYQSGDHPRQDSMDFSNEWGDPSNCRCGDRLKPLERRAARQHQRCLAHSLVGTPNYIAPEVLLRTGYTQLCDWWSVGVILFEMLVGQPPFLAQTPLETQMKVINWQTSLHIPPQAKLSPEASDLIIKLCRGPEDRLGKNGADEIKAHPFFKTIDFSSDLRQQSASYIPKITHPTDTSNFDPVDPDKLWSDGSEEENISDTLNGWYKNGKHPEHAFYEFTFRRFFDDNGYPYNYPKPIEYEYIHSQGSEQQSDEDDQHTSSDGNNRDLVYV	no binding (condition: cells treated with IL-1β)
–	binds	Flag-ZBTB20 (protein, UniProt Q8K0L9 1-741) MLERKKPKTAENQKASEENEITQPGGSSAKPALPCLNFEAVLSPAPALIHSTHSLTNSHAHTGSSDCDISCKGMTERIHSINLHNFSNSVLETLNEQRNRGHFCDVTVRIHGSMLRAHRCVLAAGSPFFQDKLLLGYSDIEIPSVVSVQSVQKLIDFMYSGVLRVSQSEALQILTAASILQIKTVIDECTRIVSQNVGDVFPGIQDSGQDTPRGTPESGTSGQSSDTESGYLQSHPQHSVDRIYSALYACSMQNGSGERSFYSGAVVSHHETALGLPRDHHMEDPSWITRIHERSQQMERYLSTTPETTHCRKQPRPVRIQTLVGNIHIKQEMEDDYDYYGQQRVQILERNESEECTEDTDQAEGTESEPKGESFDSGVSSSIGTEPDSVEQQFGAAAPRDGQAEPAQPEQAAEAPAESSAQPNQLEPGASSPERSNESEMDNTVITVSNSSDKGVLQQPSVNTSIGQPLPSTQLYLRQTETLTSNLRMPLTLTSNTQVIGTAGNTYLPALFTTQPAGSGPKPFLFSLPQPLTGQQTQFVTVSQPGLSTFTAQLPAPQPLASSAGHSTASGQGDKKPYECTLCNKTFTAKQNYVKHMFVHTGEKPHQCSICWRSFSLKDYLIKHMVTHTGVRAYQCSICNKRFTQKSSLNVHMRLHRGEKSYECYICKKKFSHKTLLERHVALHSASNGTPPAGTPPGARAGPPGVVACTEGTTYVCSVCPAKFDQIEQFNDHMRMHVSDG	–
